Data from the supplement of paper PMC10331698.
± gives the standard deviation of the averaged measurements. Most entries show no effect beyond the scatter of the controls.

What was measured:
Assay in all cases: level (log10 ratio to DMSO vehicle control); higher = higher biomarker level / cell amount than vehicle control
[1] = compound: C=C(C)C(=O)OCC(F)(F)C(F)(F)C(F)(F)C(F)(F)C(F)(F)C(F)(F)C(F)(F)F; details: in DMSO
Description: (§1)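 BioMAP Diversity Plus panel of 12 human primary cell co-culture systems (3C, 4H, LPS, SAg, BT, BF4T, BE3C, CASM3C, HDF3CGF, KF3CT, MyoF, Mphg). Compounds were added 1 h before stimulation and left for 24 h (MyoF 48 h; BT 72 h for soluble read-outs or 6 d for IgG). Biomarkers were read by ELISA, cytotoxicity by SRB, PBMC viability and proliferation by Alamar Blue. Each well value was divided by the mean of 8 DMSO control wells on the same plate and log10 transformed; duplicate blinded samples were tested at 4 concentrations.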

[2] = compound: FC(F)(F)C(F)(F)C(F)(F)CC1CO1 [1H,1H-Heptafluorobutyl epoxide]; details: 2200 nM; in DMSO
Description: as §1

[3] = compound: C=CC(=O)OCC(F)(F)C(F)(F)C(F)(F)C(F)(F)C(F)(F)C(F)(F)C(F)(F)F [1H,1H-Perfluorooctyl acrylate]; details: 2200 nM; in DMSO
Description: as §1

[4] = compound: FC(F)(F)C(F)(F)C(F)(F)CI [Heptafluorobutyl iodide]; details: 2200 nM; in DMSO
Description: as §1

[5] = compound: NC(=O)C(F)(F)C(F)(F)C(F)(F)C(F)F; details: in DMSO
Description: as §1

[6] = compound: OCC(F)(F)C(F)(F)C(F)(F)C(F)(F)C(F)(F)C(F)F [1H,1H,7H-Dodecafluoro-1-heptanol]; details: 2200 nM; in DMSO
Description: as §1

[7] = compound: O=C(O)C(F)(F)C(F)(F)C(F)F [4H-Perfluorobutanoic acid]; details: in DMSO
Description: as §1

[8] = compound: O=S(=O)(F)C(F)(F)C(F)(F)C(F)(F)C(F)(F)C(F)(F)C(F)(F)C(F)(F)C(F)(F)F [Perfluorooctanesulfonyl fluoride]; details: 2200 nM; in DMSO
Description: as §1

[9] = compound: CO[Si](C)(CCC(F)(F)C(F)(F)C(F)(F)C(F)(F)C(F)(F)C(F)(F)F)OC [Dimethoxymethyl((perfluorohexyl)ethyl)silane]; details: in DMSO
Description: as §1

[10] = compound: O=S(=O)(OCC(F)(F)F)C(F)(F)C(F)(F)C(F)(F)C(F)(F)F [2,2,2-Trifluoroethyl perfluorobutanesulfonate]; details: 2200 nM; in DMSO
Description: as §1

[11] = compound: NS(=O)(=O)C(F)(F)C(F)(F)C(F)(F)C(F)(F)C(F)(F)C(F)(F)C(F)(F)C(F)(F)F [Perfluorooctanesulfonamide]; details: in DMSO
Description: as §1

[12] = compound: O=S(=O)(O)C(F)(F)C(F)(F)C(F)(F)C(F)(F)C(F)(F)C(F)(F)C(F)(F)C(F)(F)F [Perfluorooctanesulfonic acid]; details: 2200 nM; in DMSO
Description: as §1

[13] = compound: C=CC(F)(F)C(F)(F)C(F)(F)C(F)(F)C(F)(F)C(F)(F)C(F)(F)C(F)(F)C=C [1,8-Divinylperfluorooctane]; details: in DMSO
Description: as §1

[14] = compound: NC(=O)C(F)(F)C(F)(F)F [Pentafluoropropionamide]; details: 2200 nM; in DMSO
Description: as §1

[15] = compound: COC(=O)C(F)(F)C(F)(F)OC(F)(C(F)(F)F)C(F)(F)OC(F)=C(F)F [Methyl perfluoro(3-(1-ethenyloxypropan-2-yloxy)propanoate)]; details: in DMSO
Description: as §1

[16] = compound: O=S(=O)(O)C(F)(F)C(F)(F)C(F)(F)C(F)(F)C(F)(F)C(F)(F)C(F)(F)C(F)(F)F [Potassium perfluorooctanesulfonate]; details: 2200 nM; in DMSO
Description: as §1

[17] = compound: OCCCCC(F)(F)C(F)(F)C(F)(F)C(F)(F)F [4:4 Fluorotelomer alcohol]; details: 2200 nM; in DMSO
Description: as §1

[18] = compound: O=P(O)(O)CCC(F)(F)C(F)(F)C(F)(F)C(F)(F)C(F)(F)C(F)(F)F [2-(Perfluorohexyl)ethylphosphonic acid]; details: 2200 nM; in DMSO
Description: as §1

Test System	level (log10) ([1]; 740 nM)	level (log10) ([1]; 2200 nM)	level (log10) [2]	level (log10) [3]	level (log10) [4]	level (log10) ([5]; 2200 nM)	level (log10) ([5]; 6700 nM)	level (log10) ([5]; 20000 nM)	level (log10) ([5]; 60000 nM)	level (log10) [6]	level (log10) ([7]; 2200 nM)	level (log10) ([7]; 6700 nM)	level (log10) ([7]; 20000 nM)	level (log10) ([7]; 60000 nM)	level (log10) [8]	level (log10) ([9]; 740 nM)	level (log10) ([9]; 2200 nM)	level (log10) [10]	level (log10) ([11]; 2200 nM)	level (log10) ([11]; 6700 nM)	level (log10) ([11]; 20000 nM)	level (log10) [12]	level (log10) ([13]; 740 nM)	level (log10) ([13]; 2200 nM)	level (log10) [14]	level (log10) ([15]; 740 nM)	level (log10) ([15]; 2200 nM)	level (log10) [16]	level (log10) [17]	level (log10) [18]
BF4T:Keratin 8/18	0.019 ± 0.03	0.0225 ± 0.015	-0.019 ± 0.018	0.01 ± 0.028	0.016 ± 0.031	0.009 ± 0.044	0.004 ± 0.042	0.005 ± 0.011	0.0135 ± 0.026	0.0175 ± 0.0035	-0.0185 ± 0.0035	-0.027 ± 0.027	-0.0025 ± 0.013	0.0035 ± 0.021	0.0005 ± 0.018	-0.002 ± 0.071	0.0145 ± 0.073	-0.0015 ± 0.018	-0.0065 ± 0.005	-0.0085 ± 0.005	-0.069 ± 0.023	-0.001 ± 0.013	0.013 ± 0.064	0.012 ± 0.047	0.0245 ± 0.044	0.0105 ± 0.00071	-0.008 ± 0.02	-0.007 ± 0.0057	0.022 ± 0.037	0.009 ± 0.03
3C:SRB	0.0315 ± 0.0064	0.017 ± 0.017	0.0055 ± 0.025	0.0025 ± 0.011	0.0025 ± 0.0078	-0.033 ± 0.025	-0.0075 ± 0.019	-0.013 ± 0.0014	-0.019 ± 0.023	0.0005 ± 0.012	-0.006 ± 0.0099	0.0015 ± 0.0064	-0.007 ± 0.016	-0.0075 ± 0.013	-0.004 ± 0.0028	0.021 ± 0.014	-0.002 ± 0.038	-0.0095 ± 0.0021	0.0225 ± 0.023	0.0135 ± 0.022	-0.088 ± 0.0042	0.004 ± 0.016	0.022 ± 0.0071	0.03 ± 0.018	0.0125 ± 0.011	-0.0025 ± 0.0092	-0.0005 ± 0.0035	0.0035 ± 0.019	-0.009 ± 0.016	-0.007 ± 0.021
lMphg:CCL3/MIP-1alpha	0.024 ± 0.047	-0.014 ± 0.02	-0.014 ± 0.031	0.01 ± 0.025	0.032 ± 0.034	0 ± 0.0057	-0.039 ± 0.0099	-0.0295 ± 0.018	-0.006 ± 0.0028	0.051 ± 0.073	0.025 ± 0.034	-0.0075 ± 0.037	0.004 ± 0.016	0.0235 ± 0.011	0.018 ± 0.041	0.0195 ± 0.0092	-0.0165 ± 0.0021	-0.0275 ± 0.047	0.001 ± 0.033	-0.003 ± 0.016	0.023 ± 0.0099	-0.003 ± 0.0085	0.0075 ± 0.036	-0.0295 ± 0.0092	0.0225 ± 0.025	0.015 ± 0.03	0.0155 ± 0.0064	0.022 ± 0.0014	0.0165 ± 0.023	-0.005 ± 0.027
BF4T:tPA	0.005 ± 0.058	-0.008	-0.006 ± 0.027	0.017 ± 0.021	0.0045 ± 0.023	0.0195 ± 0.053	-0.0005 ± 0.021	-0.0115 ± 0.022	0.0125 ± 0.005	0.008 ± 0.017	-0.013 ± 0.017	-0.002 ± 0.037	0.003 ± 0.028	0.0475 ± 0.022	0.0035 ± 0.012	0.008 ± 0.025	0.006 ± 0.018	-0.0095 ± 0.012	0.0145 ± 0.028	-0.059 ± 0.013	0.006 ± 0.02	0.0375 ± 0.074	0.008 ± 0.03	0.0065 ± 0.012	-0.0005 ± 0.025	-0.0145 ± 0.021	-0.014 ± 0.0085	0.0235 ± 0.088	0.027 ± 0.05	-0.0235 ± 0.033
